For some assays here: For at least one compound, name, drawing or mass did not settle the structure. Some entries share one result that the patent states for a list of compounds.
Experiments:
HUVEC = experiment: Tube formation on Matrigel by HUVEC; type: cell-based, human; settings: 200 μM, 18 h
Protocol: The formation of tubes on Matrigel by HUVEC was assessed as described (Kubota et al., J. Cell. Biol. 107(4): 1589–1598 (1988) and Ponce, In Vitro Matrigel Angiogenesis Assays. Totowa, N.J.: Humana Press Inc., 2000) with minor modifications as follows. Matrigel, 0.3 ml, was added to each well of a 24-well plate. After the Matrigel had gelled, HUVEC (5×10^4 cells), trypsinized from an exponentially growing culture, were added to each well in 0.2 ml of supplemented EBM-2. Test compounds were added in duplicate for each concentration and incubated at 37° C., 5% CO2, for 18 h. The medium was aspirated the next day, and the cells were fixed and stained with Diff-Quick Fix and staining solution II (Baxter Scientific Products, McGaw, Ill.).

chick aortic arch rings = experiment: Chick aortic arch ring sprouting on Matrigel; settings: 72 h of incubation
Protocol: The assay was carried out as described previously for rat aortic rings (Gho et al., 1999), supra) with a slight modification. Briefly, the aortic arches were dissected from 14-day-old chick embryos, cleaned free of unwanted tissue, and cut into 0.8 mm slices. Each ring was transferred into the center of a well of a 24-well plate to which 1.5 μl of Matrigel had just been added. Ten μl of ice-cold Matrigel were added immediately to embed the ring. When the Matrigel was solidified, 500 μl of supplemented EBM-2 were added to each well. After addition of the test compounds in sextuplicate for each concentration, the plates were incubated at 37° C. with 5% CO2, and the degree of sprouting was assessed by a blinded observer after 48 and 72 h.

For `CC(=O)N(O)CCCCCNC(=O)CCC(=O)N(O)CCCCCNC(=O)CCC(=O)N(O)CCCCCN` [deferoxamine], the “inhibition of tube formation” value (HUVEC) was “Modest inhibition” and the “concentration showing a strong inhibition of sprouting” value (chick aortic arch rings) was 50 to 100 µM.
